Laboratory results reported in paper PMC12766987.

T1: Flag-tagged Calhm6 (OE-Calhm6 cells) (UniProt Q8C9E8)
T1 sequence: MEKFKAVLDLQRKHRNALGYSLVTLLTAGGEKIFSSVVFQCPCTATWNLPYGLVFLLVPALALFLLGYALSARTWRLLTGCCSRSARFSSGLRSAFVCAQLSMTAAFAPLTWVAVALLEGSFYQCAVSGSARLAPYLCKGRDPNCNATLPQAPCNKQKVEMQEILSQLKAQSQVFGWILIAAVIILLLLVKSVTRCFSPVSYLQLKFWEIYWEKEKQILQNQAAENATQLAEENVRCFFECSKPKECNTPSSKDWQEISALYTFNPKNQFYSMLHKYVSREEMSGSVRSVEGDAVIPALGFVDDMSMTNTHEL

B1: Chp1 (calcineurin B homologous protein 1), endogenous in RAW264.7 (protein, UniProt P61022 1-195)
chain: MGSRASTLLRDEELEEIKKETGFSHSQITRLYSRFTSLDKGENGTLSREDFQRIPELAINPLGDRIINAFFSEGEDQVNFRGFMRTLAHFRPIEDNEKSKDVNGPEPLNSRSNKLHFAFRLYDLDKDDKISRDELLQVLRMMVGVNISDEQLGSIADRTIQEADQDGDSAISFTEFVKVLEKVDVEQKMSIRFLH
B2: CaMK4 (Calcium/calmodulin-dependent protein kinase IV), endogenous in RAW264.7 (protein, UniProt P08414 1-469)
chain: MLKVTVPSCPSSPCSSVTASTENLVPDYWIDGSNRDPLGDFFEVESELGRGATSIVYRCKQKGTQKPYALKVLKKTVDKKIVRTEIGVLLRLSHPNIIKLKEIFETPTEISLVLELVTGGELFDRIVEKGYYSERDARDAVKQILEAVAYLHENGIVHRDLKPENLLYATPAPDAPLKIADFGLSKIVEHQVLMKTVCGTPGYCAPEILRGCAYGPEVDMWSVGIITYILLCGFEPFYDERGDQFMFRRILNCEYYFISPWWDEVSLNAKDLVKKLIVLDPKKRLTTFQALQHPWVTGKAANFVHMDTAQKKLQEFNARRKLKAAVKAVVASSRLGSASSSHTSIQENHKASSDPPSTQDAKDSTDLLGKKMQEEDQEEDQVEAEASADEMRKLQSEEVEKDAGVKEEETSSMVPQDPEDELETDDPEMKRDSEEKLKSVEEEMDPMTEEEAPDAGLGVPQQDAIQPEY

Target: T1, Flag-tagged Calhm6 (OE-Calhm6 cells)
Test: affinity purification with mass spectrometry; lysates of OE-Calhm6 RAW264.7 cells, untreated or treated with IL-4 (20 ng/mL) or CaCl2 (2 mM); Flag-tagged Calhm6 precipitated with anti-Flag beads, precipitates analysed by mass spectrometry

Binder | binding
B1 | binds
B2 | binds

These are yes or no findings as the source states them, for the method shown. Binding seen in cells or lysates may run through a third protein. A yes stands for co-enrichment or nearness to the bait. Other partners may have been found. Where a sequence is shown, tags or fusion partners need not be part of it.
